Data on one molecule can be found in PMC3805512.

Results are given in words; binding and its absence hold for the method and conditions named. Binding seen in cells or lysates may run through a third protein. These calls come from enrichment with a bait or labelling near it, and not all partners need be listed. For some assays here: No binding means not detected with the bait.

Assay [1] deals with GST-rM180 (glutathione S-transferase fusion of recombinant mouse amelogenin M180) (mouse). Kind of assay: affinity purification with mass spectrometry; GST-rM180 or GST (50 µg) on glutathione-Sepharose 4B beads, incubated with 10 mg of the soluble (cytosolic) protein extract of SaOS-2 cells (pre-cleared with glutathione resin) for 1 h at 4°C; washed (50 mM Tris-HCl pH 7.5, 150 mM NaCl, 10% glycerol, 0.2% Triton X-100); eluate on 2D-PAGE, Coomassie spots identified by MALDI-TOF MS; only the target purified.

In assay [2] the target is glutathione S-transferase (GST). The description is as above.

B1: myosin regulatory light chain 12A (protein, UniProt P19105 1-171)
chain: MSSKRTKTKTKKRPQRATSNVFAMFDQSQIQEFKEAFNMIDQNRDGFIDKEDLHDMLASLGKNPTDEYLDAMMNEAPGPINFTMFLTMFGEKLNGTDPEDVIRNAFACFDEEATGTIQEDYLRELLTTMGDRFTDEEVDELYREAPIDKKGNFNYIEFTRILKHGAKDKDD
For B1, the binding result is given as “binds” in assay [1] and “no binding” in assay [2].
